Measurements reported in patent US4069035A, “1-(2-Carboxyaryl)-3-aryl-1,2,4-triazoles and use as herbicides” (E. I. Du Pont de Nemours and Company, priority 1976, dated 1978).

Legend:
Design in all cases: key: ++: strongly dyed; +: moderately dyed; -: very weakly or not dyed at all
Settings in all cases: 90° for 10 min
[1] = dyeing of fiber swatch with picrate salt, visual evaluation
[2] = as above; remark: listed apart in the source
[3] = as above; remark: listed apart in the source
[4] = as above; remark: listed apart in the source
[5] = as above; remark: listed apart in the source
[6] = as above; remark: listed apart in the source
[7] = as above; remark: listed apart in the source
[8] = as above; remark: listed apart in the source
[9] = as above; remark: listed apart in the source
[10] = as above; remark: listed apart in the source
[11] = as above; remark: listed apart in the source
[12] = as above; remark: listed apart in the source
[13] = as above; remark: listed apart in the source

Compound | dyeing, Verel 75 [1] | dyeing, Viscose [2] | dyeing, Cotton [3] | dyeing, Acetate [4] | dyeing, Wool [5] | dyeing, Creslan 61 [6] | dyeing, Dacron 54 [7] | dyeing, Dacron 64 [8] | dyeing, Acrilan 1656 [9] | dyeing, Arnel [10] | dyeing, Orlon [11] | dyeing, Silk [12] | dyeing, Nylon [13]
Cc1ccc(-c2ncn(-c3ccccc3C(=O)O)n2)cc1 | + | - | - | + | ++ | - | - | - | + | - | - | ++ | ++
COc1ccc(-c2ncn(-c3ccccc3C(=O)O)n2)cc1 | - | - | - | + | ++ | - | - | - | + | - | - | ++ | ++
O=C(O)c1ccccc1-n1cnc(-c2ccc(Cl)cc2)n1 [1,2,4-Triazole Picrates, Ar = 4-ClC6 H4] | - | - | - | + | ++ | - | - | - | + | - | - | ++ | ++
O=C(O)c1ccccc1-n1cnc(-c2ccccc2)n1 [1,2,4-Triazole Picrates, Ar = C6 H5] | + | + | - | + | ++ | - | - | - | + | - | - | ++ | ++
Cc1ccc(-c2cn(-c3ccccc3C(=O)O)cn2)cc1 [Imidazole Picrates, Ar = 4-CH3 C6 H4] | - | - | - | + | ++ | - | - | - | + | - | - | ++ | ++
COc1ccc(-c2cn(-c3ccccc3C(=O)O)cn2)cc1 [Imidazole Picrates, Ar = 4-CH3 OC6 H4] | - | - | - | + | ++ | - | - | - | + | - | - | ++ | ++
O=C(O)c1ccccc1-n1cnc(-c2ccccc2)c1 [Imidazole Picrates, Ar = C6 H5] | - | - | - | + | ++ | - | - | - | + | - | - | ++ | ++
